# Assay results taken from doi:10.1101/2025.03.03.641251.
# Chains of the proteins cited; added tags and fusions are not shown. Residues count along the entry.
# UniProt P39060, residues 24-1754: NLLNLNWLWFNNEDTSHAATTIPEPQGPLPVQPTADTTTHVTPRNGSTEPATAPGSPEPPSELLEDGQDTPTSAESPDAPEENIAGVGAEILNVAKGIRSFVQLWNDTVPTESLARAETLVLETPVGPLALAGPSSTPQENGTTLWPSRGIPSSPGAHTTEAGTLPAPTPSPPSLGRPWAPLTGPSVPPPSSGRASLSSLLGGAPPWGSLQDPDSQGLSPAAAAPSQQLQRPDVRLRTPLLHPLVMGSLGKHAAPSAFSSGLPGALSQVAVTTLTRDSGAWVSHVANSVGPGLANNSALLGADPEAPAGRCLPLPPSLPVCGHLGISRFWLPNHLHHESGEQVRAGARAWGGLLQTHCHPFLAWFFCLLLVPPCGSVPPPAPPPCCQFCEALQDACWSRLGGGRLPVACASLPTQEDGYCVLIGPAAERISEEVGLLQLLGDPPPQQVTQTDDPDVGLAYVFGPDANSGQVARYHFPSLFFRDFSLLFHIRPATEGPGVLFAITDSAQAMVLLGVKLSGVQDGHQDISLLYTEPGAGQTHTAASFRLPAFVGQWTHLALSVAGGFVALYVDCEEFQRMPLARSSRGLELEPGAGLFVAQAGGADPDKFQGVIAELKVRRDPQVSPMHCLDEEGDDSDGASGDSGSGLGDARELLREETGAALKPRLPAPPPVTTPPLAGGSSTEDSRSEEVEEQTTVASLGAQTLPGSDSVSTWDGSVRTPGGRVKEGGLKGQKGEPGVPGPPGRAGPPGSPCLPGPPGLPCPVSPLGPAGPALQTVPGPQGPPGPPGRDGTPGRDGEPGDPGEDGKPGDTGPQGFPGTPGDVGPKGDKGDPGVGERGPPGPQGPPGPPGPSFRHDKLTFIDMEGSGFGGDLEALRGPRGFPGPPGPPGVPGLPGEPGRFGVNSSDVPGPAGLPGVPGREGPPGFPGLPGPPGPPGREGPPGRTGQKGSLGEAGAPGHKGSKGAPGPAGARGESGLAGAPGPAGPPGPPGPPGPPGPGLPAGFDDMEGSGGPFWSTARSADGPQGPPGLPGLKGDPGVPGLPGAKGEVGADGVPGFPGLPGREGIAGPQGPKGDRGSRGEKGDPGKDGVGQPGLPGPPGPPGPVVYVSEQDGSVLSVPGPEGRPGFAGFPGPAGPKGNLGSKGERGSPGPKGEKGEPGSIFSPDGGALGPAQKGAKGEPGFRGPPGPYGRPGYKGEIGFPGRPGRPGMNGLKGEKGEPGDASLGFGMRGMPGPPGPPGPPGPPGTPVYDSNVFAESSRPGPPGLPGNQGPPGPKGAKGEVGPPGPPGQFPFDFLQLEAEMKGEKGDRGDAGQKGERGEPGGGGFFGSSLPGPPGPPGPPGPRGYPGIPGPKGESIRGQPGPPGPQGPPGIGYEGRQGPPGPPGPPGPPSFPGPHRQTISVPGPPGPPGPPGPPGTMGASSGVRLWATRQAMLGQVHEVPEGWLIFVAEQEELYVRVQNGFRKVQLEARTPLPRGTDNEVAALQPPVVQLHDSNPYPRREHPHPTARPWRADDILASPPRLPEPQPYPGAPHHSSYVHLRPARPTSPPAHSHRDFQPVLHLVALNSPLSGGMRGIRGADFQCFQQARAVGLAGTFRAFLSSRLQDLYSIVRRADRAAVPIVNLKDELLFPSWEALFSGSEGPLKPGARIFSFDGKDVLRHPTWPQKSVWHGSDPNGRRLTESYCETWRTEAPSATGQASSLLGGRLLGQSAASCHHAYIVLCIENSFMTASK
# Results are given in words; binding and its absence hold for the method and conditions named. In cells and extracts the contact can be indirect. Some results given as binding are weak or reduced against the parent protein; the word gives no strength.
# Target: T1, SPINK1-ALFA (human) (UniProt P00995)
# T1 sequence: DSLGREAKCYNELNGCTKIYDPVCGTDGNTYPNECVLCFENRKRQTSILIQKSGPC
# Assay: co-IP
substance,measurement,value
COL18A1 (from UniProt P39060 24-1754),binding,binds
